# Some results were stated once for a whole list of compounds, not compound by compound.
# System: subunit I of Complex IV (COX-I)
# Experiment: Mitobiogenesis In-Cell ELISA, COX-I levels in H9c2 cells
# Format: cell-based, Rat
# Settings: H9c2 heart muscle cells, 24 hours treatment; FIG. 7
smiles,measurement,value
"NC(=O)c1cccnc1 [niacinamide, Niacinamide]",increase of Cox-1 levels compared to control,52-58%
